The source of these data is PMC8927971.

Common to all, as to assay: EMSA
For orientation: Mobility shift assays separate free from complexed probe on a gel.

In series [1] the target is T1, CIZ1 N571 (GST-N571) (Mus musculus) (UniProt F6ZP34).
T1 sequence (looked up): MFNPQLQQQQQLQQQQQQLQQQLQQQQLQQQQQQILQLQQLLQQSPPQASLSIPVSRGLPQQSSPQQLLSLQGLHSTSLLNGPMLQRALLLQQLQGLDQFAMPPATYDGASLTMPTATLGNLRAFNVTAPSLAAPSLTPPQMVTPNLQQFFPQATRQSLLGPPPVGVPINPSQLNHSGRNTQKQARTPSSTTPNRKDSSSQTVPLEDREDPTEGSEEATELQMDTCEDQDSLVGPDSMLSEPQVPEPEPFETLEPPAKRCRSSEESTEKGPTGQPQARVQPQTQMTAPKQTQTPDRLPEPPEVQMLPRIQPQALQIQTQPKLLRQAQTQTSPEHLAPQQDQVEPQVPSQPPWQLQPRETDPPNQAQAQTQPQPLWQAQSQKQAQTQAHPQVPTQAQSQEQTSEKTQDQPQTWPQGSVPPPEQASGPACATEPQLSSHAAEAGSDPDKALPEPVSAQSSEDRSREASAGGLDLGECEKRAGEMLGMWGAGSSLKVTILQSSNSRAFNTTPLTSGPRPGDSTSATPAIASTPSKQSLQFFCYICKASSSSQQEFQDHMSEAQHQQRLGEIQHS
The conditions noted are these: 0.3 nM RNA, 10 mM Tris-HCl pH 7.5, 30 mM NaCl, 2.5 mM MgCl2, 0.2 mM DTT, 0.1% IGEPAL CA-630, 0.1 mg/ml yeast tRNA, 0.4 U RNaseOUT, 1% glycerol, 30 C 20 min, recombinant protein, residues 1-571, protein details: GST (N-term), label: digoxigenin-11-UTP (1:15 with UTP), probe letters rebuilt from the primers and the genome.

For series [2], the target named is T2, CIZ1 C275 (Mus musculus) (UniProt F6ZP34).
T2 sequence (looked up): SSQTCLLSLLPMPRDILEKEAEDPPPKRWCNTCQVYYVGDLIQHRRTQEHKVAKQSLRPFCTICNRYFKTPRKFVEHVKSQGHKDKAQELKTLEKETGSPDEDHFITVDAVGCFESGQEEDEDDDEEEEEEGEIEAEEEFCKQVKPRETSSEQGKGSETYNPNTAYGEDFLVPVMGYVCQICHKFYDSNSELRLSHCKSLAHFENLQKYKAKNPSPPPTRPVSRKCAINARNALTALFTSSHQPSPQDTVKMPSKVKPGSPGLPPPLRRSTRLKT
Particulars: 10 mM Tris-HCl pH 7.5, 30 mM NaCl, 2.5 mM MgCl2, 0.2 mM DTT, 0.1% IGEPAL CA-630, 0.1 mg/ml yeast tRNA, 0.4 U RNaseOUT, 1% glycerol, 30 C 20 min, recombinant protein, residues 571-845, label: digoxigenin-11-UTP (1:15 with UTP), probe letters rebuilt from the primers and the genome.

Series [3] concerns the target T3, CIZ1 C181 (Mus musculus) (UniProt F6ZP34).
T3 sequence (looked up): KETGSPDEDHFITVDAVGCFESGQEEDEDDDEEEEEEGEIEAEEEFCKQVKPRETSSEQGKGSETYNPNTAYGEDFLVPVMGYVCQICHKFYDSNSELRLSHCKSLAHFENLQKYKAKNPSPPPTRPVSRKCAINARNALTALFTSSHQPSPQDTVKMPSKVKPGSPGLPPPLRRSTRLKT
Particulars: results similar to C275; 10 mM Tris-HCl pH 7.5, 30 mM NaCl, 2.5 mM MgCl2, 0.2 mM DTT, 0.1% IGEPAL CA-630, 0.1 mg/ml yeast tRNA, 0.4 U RNaseOUT, 1% glycerol; 30 C 20 min; recombinant protein; residues 665-845; label: digoxigenin-11-UTP (1:15 with UTP); probe letters rebuilt from the primers and the genome.

Where [4] appears, read: up to 5 uM protein, 0.3 nM RNA, first evident at 600 nM.

A weaker result is weaker than the reference pair of the same experiment. Protein sequences can lack the tags named with them. For part of these data: For at least one entry, the source does not settle the construct or the ends of the probe.

On to “GGGAGCACAUAACACACAUGCACACACGCACAUGUACAUACAAAGAAACAUCCAAGAAAGGAUUACUUUAGAAUACAAGAGAGACACAGACUUGUAAAGAGAUGAAAUGCUCAAAGUGAACAGAAAGGAGGAAAGUAGAAGAUAGAAACACAAGCAAACACAAAGCAACAGAAUGAUGCUGAGAUAAGAAAUCCACCAAUAGCAAAGAGACACAAAUACAAAAGAAAACAGAGAAAGUGGCCCAAGAAAGGCAGGGAAGAAAUGUAAACAAGAAUUCACUAAGGAUAGAAGCAGCAGAAAGAAAACUGAAAUGGACUGACAAAGAGAACUUGAACAAAGAACAAGUGGGGUGAGCACAAGAAAAAGAGAGGGAUGCAUGCAACAUGUGACCCAAAGGGGAGUCACGAAAGGCAGGAGUGAAAGAAAAGCUAAGAGAAAUAGCAACCAGAUAGAUAAAACAGAGAGCCAUAGCUAGUG [Xist repeat E distal antisense]”, for which the binding result in series [1] is listed as “binds more weakly”.
Consider “GGGAGAUUUCUUCCUUGCAGUUGUGUCUAAUUCUUUGUUACAUCUAUUUCUUCCUUGCUUUUGUGUGUCUAUUUCUUCCUUGCAUUGUGUCUAAUUCUUUGGUAUAUAUAUUUCUUCAUUGCUUUGUGUGUCUAUGUCUCCUUGUGUUGUCUAAUUCGUUGUUGCAUCUAUUUCUUCCUUGCUUUGUGUGUCUAUUUCUUCCUUGCUUUGUGUGUCUAUGUCUUCCUUGCUUUGUGUGUCUAUGUCUUCCUUGUUUUGUGUAUCUACUUCUUCCUUGUGUGUCUAAUUCUUUGUUACAUCUAUUUCUUCCUUCCUUUGCAUGUCUCCUUCUUUCCUUUGUGUGUCUUUUCUGUCUGCAGUGUGUCUUACCUAUUCCCAUGUUUCUCCUGCAUGUUCUUUCUUGCAGAGCUUUGAGCUUUGUUUCACUUUCUCUGGUGCCUGUGUGGUCUGCUUUGUCUUCACUAGCUAUGGCUCUCUGU [Xist repeat E proximal]”, for which the half-maximal binding in series [1] stood at 100 nM. Moreover, the binding result in series [2] (6.5 nM RNA, 10 mM EDTA added (enhances binding)) was “binds”; in series [2] (setting [4]), “binds more weakly”.
As to “GGGAGCACUAGCUAUGGCUCUCUGUUUUAUCUAUCUGGUUGCUAUUUCUCUUAGCUUUUCUUUCACUCCUGCCUUUCGUGACUCCCCUUUGGGUCACAUGUUGCAUGCAUCCCUCUCUUUUUCUUGUGCUCACCCCACUUGUUCUUUGUUCAAGUUCUCUUUGUCAGUCCAUUUCAGUUUUCUUUCUGCUGCUUCUAUCCUUAGUGAAUUCUUGUUUACAUUUCUUCCCUGCCUUUCUUGGGCCACUUUCUCUGUUUUCUUUUGUAUUUGUGUCUCUUUGCUAUUGGUGGAUUUCUUAUCUCAGCAUCAUUCUGUUGCUUUGUGUUUGCUUGUGUUUCUAUCUUCUACUUUCCUCCUUUCUGUUCACUUUGAGCAUUUCAUCUCUUUACAAGUCUGUGUCUCUCUUGUAUUCUAAAGUAAUCCUUUCUUGGAUGUUUCUUUGUAUGUACAUGUGCGUGUGUGCAUGUGUGUUAUGUG [Xist repeat E distal sense]”, the binding result in series [1] (preferred over antisense) is recorded as “binds”; in series [3] it was “binds more weakly”.
On to “GGGAGCUUGCUCCAGCCAUGUUUGCUCGUUUCCCGUGGAUGUGCGGUUCUUCCGUGGUUUCUCUCCAUCUAAGGAGCUUUGGGGGAACAUUUUUAGUUCCCCUACCACCAAGCCUUAUGGCUUAUUUAAGAAAACAUAUCAAAAUUCCACGAGAUUUUUGACGUUUUGAUAUGUUCUGGUAAGAUUUUUUUUUUGACAUGUCCUCCAUACUUUUUGAUAUUUGUAAUAUUUUCAGUCAAUUUUUCAUUUUUAAGGAAUAUUUCUUUGUUGUGCCUUUUGGUUGAUACUUGUGUGUGUAUGGUGGACUUACCUUUCUUUCAUUGUUUAUAUAUUCUUGCCCAUCGGGGCCACGGAUACCUGUGUGUCCUCCCCGCCAUUCCAUGCCCAACGGGGUUUUGGAUACUUACCUGCCUUUUCAUUCUUUUUUUUUCUUAUUAUUUUUUUUUCUAAACUUGCCCAUCUGGGCUGUGGAUACCUGCUUUUAUUCUUUUUUUCUUCUCCUUAG [Xist repeat A]”, for which the half-maximal binding in series [1] turned out to be 200 nM. Further, the binding result in series [2] (setting [4]) and in series [3] was “binds more weakly” each time.
